Source: article PMC12533114
No constants are given. Whether binding was seen depends on the method and setting. Binding seen in cells or lysates may run through a third protein. Here binding means that the protein was enriched with, or labelled near, the bait; the list need not be complete.

The chains behind the UniProt entries cited, without tags or fusion partners.
UniProt P51593: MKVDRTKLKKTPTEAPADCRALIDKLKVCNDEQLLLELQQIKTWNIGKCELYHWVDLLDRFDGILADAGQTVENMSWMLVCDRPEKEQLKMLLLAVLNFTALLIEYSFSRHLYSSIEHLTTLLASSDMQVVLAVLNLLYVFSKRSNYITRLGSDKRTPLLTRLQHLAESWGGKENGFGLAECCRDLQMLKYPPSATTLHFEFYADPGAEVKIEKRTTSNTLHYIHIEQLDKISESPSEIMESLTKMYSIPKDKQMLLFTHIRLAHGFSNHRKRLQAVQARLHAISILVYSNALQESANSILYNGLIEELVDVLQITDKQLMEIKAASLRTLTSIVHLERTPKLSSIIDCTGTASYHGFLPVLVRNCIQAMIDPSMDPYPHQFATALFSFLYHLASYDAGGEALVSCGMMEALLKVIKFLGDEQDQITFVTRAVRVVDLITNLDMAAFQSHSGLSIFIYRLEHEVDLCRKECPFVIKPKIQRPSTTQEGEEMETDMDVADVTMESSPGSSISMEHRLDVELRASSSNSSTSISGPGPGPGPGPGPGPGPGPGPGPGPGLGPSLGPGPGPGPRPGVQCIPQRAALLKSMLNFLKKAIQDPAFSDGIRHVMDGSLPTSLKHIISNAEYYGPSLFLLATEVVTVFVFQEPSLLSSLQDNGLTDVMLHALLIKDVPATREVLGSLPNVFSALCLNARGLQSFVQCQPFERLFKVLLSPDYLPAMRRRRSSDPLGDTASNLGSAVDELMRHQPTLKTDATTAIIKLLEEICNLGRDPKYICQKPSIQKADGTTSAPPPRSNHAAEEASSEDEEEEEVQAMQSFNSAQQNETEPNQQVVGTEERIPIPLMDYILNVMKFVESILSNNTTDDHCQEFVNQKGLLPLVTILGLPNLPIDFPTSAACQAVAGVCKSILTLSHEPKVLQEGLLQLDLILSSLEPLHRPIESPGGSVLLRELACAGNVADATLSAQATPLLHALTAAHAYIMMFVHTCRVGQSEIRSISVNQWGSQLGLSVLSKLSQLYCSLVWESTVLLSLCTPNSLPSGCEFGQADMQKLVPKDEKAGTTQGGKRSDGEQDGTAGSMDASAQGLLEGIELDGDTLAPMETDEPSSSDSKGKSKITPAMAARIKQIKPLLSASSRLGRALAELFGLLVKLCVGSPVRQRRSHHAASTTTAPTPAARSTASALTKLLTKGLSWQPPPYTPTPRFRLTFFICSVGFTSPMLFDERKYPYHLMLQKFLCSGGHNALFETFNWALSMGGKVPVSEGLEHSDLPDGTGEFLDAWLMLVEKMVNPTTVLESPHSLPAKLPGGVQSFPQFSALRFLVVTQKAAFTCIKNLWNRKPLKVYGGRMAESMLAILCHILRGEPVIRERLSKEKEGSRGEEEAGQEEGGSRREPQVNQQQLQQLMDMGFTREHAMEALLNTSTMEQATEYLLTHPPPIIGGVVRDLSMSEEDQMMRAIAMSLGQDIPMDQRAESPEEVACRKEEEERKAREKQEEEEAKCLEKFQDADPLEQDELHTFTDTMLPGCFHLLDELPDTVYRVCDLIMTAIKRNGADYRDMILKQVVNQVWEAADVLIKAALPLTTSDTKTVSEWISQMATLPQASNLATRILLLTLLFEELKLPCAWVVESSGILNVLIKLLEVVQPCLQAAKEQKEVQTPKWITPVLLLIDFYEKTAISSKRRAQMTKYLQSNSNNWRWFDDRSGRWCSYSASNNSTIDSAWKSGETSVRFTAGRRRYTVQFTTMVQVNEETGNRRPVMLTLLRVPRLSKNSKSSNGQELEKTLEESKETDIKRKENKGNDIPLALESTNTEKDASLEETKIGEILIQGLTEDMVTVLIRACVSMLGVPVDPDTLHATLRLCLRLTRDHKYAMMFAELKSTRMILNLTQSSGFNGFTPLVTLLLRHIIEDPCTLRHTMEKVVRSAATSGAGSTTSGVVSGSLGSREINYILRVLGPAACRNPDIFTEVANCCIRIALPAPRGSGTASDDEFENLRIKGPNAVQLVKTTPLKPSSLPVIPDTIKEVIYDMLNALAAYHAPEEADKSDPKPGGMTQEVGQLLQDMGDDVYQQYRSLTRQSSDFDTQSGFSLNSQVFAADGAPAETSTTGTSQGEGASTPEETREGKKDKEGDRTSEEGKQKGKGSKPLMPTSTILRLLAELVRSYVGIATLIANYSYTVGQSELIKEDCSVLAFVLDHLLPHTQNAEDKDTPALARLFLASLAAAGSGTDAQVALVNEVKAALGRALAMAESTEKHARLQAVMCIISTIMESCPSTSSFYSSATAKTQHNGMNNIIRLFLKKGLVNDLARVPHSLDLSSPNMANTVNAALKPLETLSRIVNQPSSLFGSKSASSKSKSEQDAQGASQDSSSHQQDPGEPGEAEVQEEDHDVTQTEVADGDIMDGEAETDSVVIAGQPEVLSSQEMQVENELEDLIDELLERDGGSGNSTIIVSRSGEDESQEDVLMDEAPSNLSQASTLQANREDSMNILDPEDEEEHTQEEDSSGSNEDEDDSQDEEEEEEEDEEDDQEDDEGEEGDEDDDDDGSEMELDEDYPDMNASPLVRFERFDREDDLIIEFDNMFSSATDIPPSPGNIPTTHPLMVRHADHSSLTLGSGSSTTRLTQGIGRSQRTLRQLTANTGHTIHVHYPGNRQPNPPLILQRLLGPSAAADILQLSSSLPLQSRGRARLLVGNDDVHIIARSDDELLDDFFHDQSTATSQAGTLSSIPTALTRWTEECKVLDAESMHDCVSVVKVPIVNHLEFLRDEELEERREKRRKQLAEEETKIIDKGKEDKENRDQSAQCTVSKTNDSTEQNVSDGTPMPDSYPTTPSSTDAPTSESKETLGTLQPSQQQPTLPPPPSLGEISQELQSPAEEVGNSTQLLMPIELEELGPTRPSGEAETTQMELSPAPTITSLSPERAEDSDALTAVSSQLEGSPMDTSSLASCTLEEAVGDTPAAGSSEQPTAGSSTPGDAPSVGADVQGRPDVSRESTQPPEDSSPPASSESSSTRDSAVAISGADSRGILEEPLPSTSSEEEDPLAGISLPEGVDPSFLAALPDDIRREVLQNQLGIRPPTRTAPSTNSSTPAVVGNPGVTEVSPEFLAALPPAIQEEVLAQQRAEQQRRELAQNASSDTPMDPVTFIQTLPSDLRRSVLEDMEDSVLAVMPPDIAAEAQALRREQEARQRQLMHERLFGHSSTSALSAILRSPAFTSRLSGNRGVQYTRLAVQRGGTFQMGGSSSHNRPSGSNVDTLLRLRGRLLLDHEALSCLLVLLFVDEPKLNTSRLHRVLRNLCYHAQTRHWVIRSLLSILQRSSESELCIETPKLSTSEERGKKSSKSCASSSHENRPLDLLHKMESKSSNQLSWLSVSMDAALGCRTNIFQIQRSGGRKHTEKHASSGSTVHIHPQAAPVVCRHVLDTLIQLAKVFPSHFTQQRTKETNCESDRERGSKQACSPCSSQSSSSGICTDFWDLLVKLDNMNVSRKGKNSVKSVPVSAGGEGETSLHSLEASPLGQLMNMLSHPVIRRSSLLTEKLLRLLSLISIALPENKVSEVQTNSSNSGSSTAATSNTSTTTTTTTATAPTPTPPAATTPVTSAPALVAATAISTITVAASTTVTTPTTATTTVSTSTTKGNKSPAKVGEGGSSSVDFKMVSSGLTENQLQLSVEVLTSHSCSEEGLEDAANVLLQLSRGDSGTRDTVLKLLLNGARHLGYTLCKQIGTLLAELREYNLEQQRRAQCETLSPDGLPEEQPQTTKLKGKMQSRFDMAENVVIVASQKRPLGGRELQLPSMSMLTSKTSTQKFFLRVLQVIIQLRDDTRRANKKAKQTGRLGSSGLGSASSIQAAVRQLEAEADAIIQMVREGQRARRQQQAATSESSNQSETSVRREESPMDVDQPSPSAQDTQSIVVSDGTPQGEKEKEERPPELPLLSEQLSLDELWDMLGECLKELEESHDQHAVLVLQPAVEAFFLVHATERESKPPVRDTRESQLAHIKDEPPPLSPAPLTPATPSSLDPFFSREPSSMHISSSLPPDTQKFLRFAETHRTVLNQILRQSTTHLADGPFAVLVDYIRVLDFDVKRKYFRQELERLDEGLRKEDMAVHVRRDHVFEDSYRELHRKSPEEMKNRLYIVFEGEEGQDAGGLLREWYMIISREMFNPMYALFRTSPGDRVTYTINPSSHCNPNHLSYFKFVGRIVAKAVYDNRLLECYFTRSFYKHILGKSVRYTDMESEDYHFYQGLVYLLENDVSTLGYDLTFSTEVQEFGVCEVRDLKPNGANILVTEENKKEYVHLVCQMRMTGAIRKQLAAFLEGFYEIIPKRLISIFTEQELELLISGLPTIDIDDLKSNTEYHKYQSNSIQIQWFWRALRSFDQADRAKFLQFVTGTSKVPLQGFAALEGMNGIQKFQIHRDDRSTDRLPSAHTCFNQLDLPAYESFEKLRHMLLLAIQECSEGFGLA

T1: neurofilament light chain protein (rat (endogenous in SD rats)) (UniProt P19527)
T1 sequence: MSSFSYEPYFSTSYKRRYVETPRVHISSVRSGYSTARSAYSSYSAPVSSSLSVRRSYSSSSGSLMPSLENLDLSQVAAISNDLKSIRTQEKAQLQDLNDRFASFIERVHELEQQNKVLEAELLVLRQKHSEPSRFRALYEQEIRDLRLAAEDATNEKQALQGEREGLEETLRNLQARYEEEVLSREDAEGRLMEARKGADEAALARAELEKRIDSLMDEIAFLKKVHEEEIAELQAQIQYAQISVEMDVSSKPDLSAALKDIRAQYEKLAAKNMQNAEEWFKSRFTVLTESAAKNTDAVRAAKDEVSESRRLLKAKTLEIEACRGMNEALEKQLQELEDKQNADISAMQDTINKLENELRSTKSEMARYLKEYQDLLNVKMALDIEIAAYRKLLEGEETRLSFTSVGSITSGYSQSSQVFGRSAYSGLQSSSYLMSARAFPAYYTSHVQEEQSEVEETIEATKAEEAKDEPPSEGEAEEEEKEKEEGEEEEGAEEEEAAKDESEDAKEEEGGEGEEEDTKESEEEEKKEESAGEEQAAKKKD


Molecular target: T1, neurofilament light chain protein (rat (endogenous in SD rats))
Test: affinity purification with mass spectrometry; Co-IP of NFL from total protein of control and high-dose atorvastatin rat groups (antibody overnight at 4 °C, Protein A agarose beads 2 h at 4 °C), SDS-PAGE, bands excised and analysed by mass spectrometry

binding	Molecule
binds	HUWE1 (from UniProt P51593 1-4454) (enzyme)
binds	SIRT2 (enzyme, UniProt Q5RJQ4 1-350) MDFLRNLFTQTLGLGSQKERLLDELTLEGVTRYMQSERCRRVICLVGAGISTSAGIPDFRSPSTGLYANLEKYHLPYPEAIFEISYFKKHPEPFFALAKELYPGQFKPTICHYFIRLLKEKGLLLRCYTQNIDTLERVAGLEPQDLVEAHGTFYTSHCVNTSCGKEYTMSWMKEKIFSEATPKCEKCQNVVKPDIVFFGENLPPRFFSCMQSDFSKVDLLIIMGTSLQVQPFASLISKAPLATPRLLINKEKTGQTDPFLGMMMGLGGGMDFDSKKAYRDVAWLGDCDQGCLALADLLGWKELEDLVRREHANIDAQSGSQASNPSATVSPRKSPPPAKEAARTKEKEEH
